Assay results from PubChem BioAssay AID493014 (National Center for Advancing Translational Sciences (NCATS), 2011).
The other results are listed elsewhere or left out. These are further read-outs of the screen, such as a control signal, another cell line or another target. No call is given for them. The list favours compounds with an active or inconclusive main result. Potencies come from curve fits of mixed quality, noted in brackets.

Assay: qHTS Assay to Find Inhibitors of Chronic Active B-Cell Receptor Signaling
Conditions: ABC-DLBCL IkBa-CBG/CBR reporter, luminescence ratio (green luciferase fused to IkBa over red control in TMD8 lymphoma cells), 4 h
How it was run: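 TMD8 human ABC-DLBCL cells with doxycycline-inducible IκBα–green luciferase fusion and unfused red luciferase, in 0.5% FBS medium; compounds up to 46 uM, 4 h at 37C. Green/red luminescence ratio, filter-overlap corrected, fitted to concentration-response curves.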

[1] = measured here: CBR red luminescence, cell number
[2] = measured here: IkBa-CBG green luminescence

Structure (SMILES)	AC50 [1]	AC50 [2]
Cc1ccc(-n2nc3cc(C)c(N)cc3n2)cc1	20.6 µM [falling, single point]	
O=C(NCCOc1ccccc1)c1ccccc1NC(=O)C1CCCO1 (stereo not drawn)	3.98 µM [rising, full curve, poor fit]	
CC(/C=N/Nc1nnc2c(n1)[nH]c1ccccc12)=C\c1ccco1	23.1 µM [falling, partial curve]	
Cc1cc2n(n1)SC(Nc1cccc3ccccc13)N2 (stereo not drawn)	18.4 µM [rising, single point]	
O=C(N/N=C\c1ccncc1)c1ccccc1O	1.58 µM [falling, full curve]	
COc1ccc(CCNC(=O)CN2C(=O)CCSc3ccccc32)c(OC)c1	17.8 µM [falling, single point]	
CN(C)S(=O)(=O)N(CC(=O)Nc1ccc(F)c(F)c1)c1ccccc1	1.46 µM [falling, partial curve, poor fit]	
N#CCC(=O)Nc1ccc(C(=O)NNC(=S)NC2CC2)cc1	25.9 µM [falling, single point]	
O=C(C1CCCN(S(=O)(=O)c2ccc(F)cc2)C1)N1CCCC1 (stereo not drawn)	0.794 µM [falling, full curve]	
COc1nonc1NC(=O)CSc1nc2ccccc2[nH]1	7.94 µM [falling, partial curve, poor fit]	
C/C(CC(=O)Nc1ccc(OCc2ccccc2)cc1)=N\NC(=O)C(=O)Nc1ccc(C)c(Cl)c1	31.6 µM [falling, single point]	
O=C(CCC1CCCC1)NNC(=O)c1ccccc1O	29.1 µM [falling, single point]	
Cc1ccc(Cn2c(NC(=O)c3ccco3)nc3ccccc32)cc1	6.31 µM [falling, single point]	
COCCCNC(=O)COC(=O)c1ccc(-c2nc3ccccc3s2)s1	3.16 µM [falling, full curve]	
COc1ccc(S(=O)(=O)N2CCOCC2)cc1NC(=O)c1cc(C)oc1C	29.1 µM [falling, single point]	
Cc1ccc(SCC(=O)Nc2ccc(-c3nnc(-c4ccco4)o3)cc2)cc1	31.6 µM [rising, partial curve, poor fit]	
O=C(NC(=S)Nc1ccc(F)c(Cl)c1)C1CC1		17.8 µM [falling, partial curve, poor fit]
Cc1ccc(S(=O)(=O)CCc2nc3ccccc3[nH]2)cc1	0.891 µM [rising, partial curve, poor fit]	
COc1ccc(C(=O)CC(=O)C(=O)Nc2ccc(C)cc2Cl)cc1	35.5 µM [rising, partial curve, poor fit]	
COc1ccccc1NC(=O)c1nc(S(=O)(=O)Cc2ccccc2)ncc1Cl	12.6 µM [falling, single point]	
COc1ccc(S(=O)(=O)n2nc(-c3ccc(Cl)cc3)cc2N)cc1OC	11.6 µM [falling, single point]	
O=C(CSc1nc(-c2ccc(Cl)cc2)cs1)Nc1cccc([N+](=O)[O-])c1	16.4 µM [falling, single point]	

Reformatted as a markdown table: entries from further up

| Structure (SMILES) | AC50 [1] | AC50 [2] |
| --- | --- | --- |
| Cc1ccc(Cn2c(NC(=O)c3ccco3)nc3ccccc32)cc1 | 6.31 µM [falling, single point] |  |
| COCCCNC(=O)COC(=O)c1ccc(-c2nc3ccccc3s2)s1 | 3.16 µM [falling, full curve] |  |
| COc1ccc(S(=O)(=O)N2CCOCC2)cc1NC(=O)c1cc(C)oc1C | 29.1 µM [falling, single point] |  |
| Cc1ccc(SCC(=O)Nc2ccc(-c3nnc(-c4ccco4)o3)cc2)cc1 | 31.6 µM [rising, partial curve, poor fit] |  |

(next part)

Structure (SMILES)	AC50 [1]	AC50 [2]
CC1CCCC(C)N1CC(O)COCc1ccccc1 (stereo not drawn)	12.6 µM [rising, single point]	
CN(C)S(=O)(=O)c1ccc(Cl)c(NC(=O)CN2CCN(c3ccccn3)CC2)c1	35.5 µM [rising, single point]	
Cc1ccc(S(=O)(=O)N2CCOCCOCCOCCOCCOCC2)cc1	0.112 µM [rising, full curve, poor fit]	
CC1CCN(CC(=O)N2CCCc3c2c(=O)oc2ccc(OCc4ccccc4)cc32)CC1	7.31 µM [falling, partial curve, poor fit]	
CCCOc1ccc(Br)cc1CSC(=N)N	29.1 µM [falling, single point]	
O=S1(=O)C=CC(Nc2cccc(Cl)c2)C1 (stereo not drawn)	29.1 µM [falling, single point]	
CSc1ccccc1OCc1cc(C(=O)N2CCC(c3ccncc3)CC2)no1	35.5 µM [falling, single point]	
O=S(=O)(NCC1CCN(S(=O)(=O)c2ccccc2)CC1)c1ccccc1	32.6 µM [rising, single point]	
O=C1Nc2ccc(Br)cc2C1Cc1ccccc1F (stereo not drawn)	17.8 µM [falling, single point]	
O=C(O)c1c(NC(=O)N2CCOCC2)sc2c1CCCC2	22.4 µM [falling, single point]	
c1ccc(-c2noc(CC3CCCCC3)n2)nc1	35.5 µM [falling, single point]	
O=C(CSc1ncnc2ccccc12)Nc1cc(S(=O)(=O)N2CCCCC2)ccc1Cl	29.1 µM [falling, single point]	
C/C(CCc1ccc2c(c1)OCO2)=N\NC(=O)c1ccccc1Br	7.94 µM [falling, partial curve]	
O=C(Nc1ccc2c(c1)OCO2)C1CCCN(c2nc3ccccc3s2)C1 (stereo not drawn)	11.2 µM [falling, partial curve]	
COc1ccc(C(c2c(C)n(C)n(-c3ccccc3)c2=O)c2c(C)n(C)n(-c3ccccc3)c2=O)cc1O	35.5 µM [rising, partial curve, poor fit]	
Cc1oc2c(C)c(O)ccc2c(=O)c1-c1cnn(-c2ccccc2)c1	2.82 µM [rising, full curve, poor fit]	
CCn1cc([N+](=O)[O-])c(C(=O)Nc2ccc(Cn3nc(C)cc3C)cc2)n1	3.98 µM [falling, single point]	3.98 µM [rising, partial curve, poor fit]
O=C(NC(=S)Nc1ccccc1O)c1ccc(Cl)cc1Cl	0.501 µM [rising, full curve, poor fit]	
Clc1ccc(-c2cn3cccnc3n2)cc1	6.51 µM [rising, partial curve, poor fit]	
Nc1nnnn1CC(=O)N/N=C/c1cc([N+](=O)[O-])ccc1O	35.5 µM [falling, single point]	
COc1ccc(Cl)cc1C(=O)NNC(=O)c1csc(N2CCOCC2)n1	32.6 µM [falling, single point]	
CC(C)=C1C2CCC1C(C(=O)Nc1sc(C)c(-c3ccc(C(C)C)cc3)c1C(N)=O)C2C(=O)O (stereo not drawn)	29.1 µM [falling, single point]	

Structure (SMILES)	AC50 [1]	AC50 [2]
O/N=C/C1=C(Cl)c2ccccc2CC1	11.2 µM [rising, single point]	
CN(C)c1cc[n+](CC(=O)Nc2c(Cl)cc(Cl)cc2Cl)cc1	12.6 µM [falling, partial curve, poor fit]	
C/C(=N\NC(=O)c1cccs1)c1c(O)cc(C)oc1=O	25.1 µM [falling, single point]	
CCc1ccc(C(=O)Nc2nc3ccccc3[nH]2)cc1	0.631 µM [falling, full curve]	
O=C(Nc1ccc(-n2cccn2)cc1)C1CCCCN1Cc1cccc2c1OCO2 (stereo not drawn)	35.5 µM [rising, single point]	20 µM [falling, single point]
COc1ccc(-n2nc(C(=O)Nc3ccc(OC)c(OC)c3)c3c4ccccc4n(C)c3c2=O)cc1	8.2 µM [falling, partial curve, poor fit]	
Cc1cccc(NC(c2cccc(F)c2)c2ccc3ccc(C)nc3c2O)n1 (stereo not drawn)	2.24 µM [falling, full curve]	
O=C(NCc1ccco1)C1CCCN(S(=O)(=O)c2cnc[nH]2)C1 (stereo not drawn)	29.1 µM [rising, single point]	
COc1cccc(OCCSc2nnc3sc4ccccc4n23)c1	14.6 µM [falling, partial curve, poor fit]	
COc1ccccc1C(=O)ON=C1c2ccccc2-c2ccccc21	5.17 µM [falling, partial curve]	23.1 µM [rising, partial curve, poor fit]
O=C(C[n+]1cc(-c2ccc(Cl)cc2)n2c1CCC2)Nc1nc(-c2ccc(F)cc2)cs1	11.2 µM [falling, partial curve]	
COc1cccc(CN2CCN(Cc3cc4ccccc4[nH]3)CC2CCO)c1 (stereo not drawn)	14.1 µM [rising, partial curve, poor fit]	
O=C(NCc1ccco1)c1cccc(Nc2nc3ccc(Br)cc3[nH]2)c1	14.6 µM [falling, single point]	
O=C(CSc1nnc2ccc(-c3cccnc3)nn12)Nc1ccc(F)cc1F	35.5 µM [falling, single point]	
COc1ccc(CC(NC(C)=O)C(=O)NC2CCN(c3nc(C)cc(C)c3C#N)CC2)c(OC)c1 (stereo not drawn)	8.91 µM [rising, single point]	
COc1ccc([N+](=O)[O-])cc1NC(C)C	14.6 µM [rising, partial curve, poor fit]	
Cc1cc(C)c2nc3nc(C)cc(C)c3c(N)c2c1	16.4 µM [falling, single point]	
CC1CCN(CCCNC(=O)c2ccc(CSCc3cccc(Cl)c3)o2)CC1	32.6 µM [falling, single point]	
COc1ccc(-c2cc(-c3nc4ccccn4c3NCc3ccccc3)ccc2OC)cc1	7.31 µM [falling, partial curve]	32.6 µM [rising, partial curve, poor fit]
CCOn1c(=O)c(-c2cc3ccccc3o2)[n+]([O-])c2ccccc21	23.1 µM [rising, single point]	
